Measured values taken from paper PMC3923057.
Results are given in words; binding and its absence hold for the method and conditions named. In cells and extracts the contact can be indirect. Some results given as binding are weak or reduced against the parent protein; the word gives no strength. Tags and fused reporters may be left off the sequences shown.

Biological target: HA-tagged guinea pig Mincle (macrophage inducible C-type lectin) (guinea pig)
Assay: co-IP; HEK293T cells transfected with the HA-tagged receptor alone or together with Flag-tagged gpFcRγ; total lysates immunoprecipitated with anti-HA (mAb for gpMincle, pAb for gpMCL) and blotted with anti-Flag pAb and anti-HA

B1: Flag-tagged guinea pig FcRγ (protein, UniProt Q07249 19-86)
chain: LGEPQLCYILDAILFLYGIILTLLYCRLKIQVRKATVASYEKPDGIYTGLSTRNQETYETLKHEKPPQ
In the case of B1, the binding is reported as “binds”.
